Three substances from paper PMC10164935 can be followed below.

Amino acid sequences for entries named in this document (tags omitted). A change or cut given only in a name is not applied to a line headed by its entry. Chains listed by the source or under a name are the forms on record and can include a tag or linker. Residues count along the entry.
UniProt Q8BWW4: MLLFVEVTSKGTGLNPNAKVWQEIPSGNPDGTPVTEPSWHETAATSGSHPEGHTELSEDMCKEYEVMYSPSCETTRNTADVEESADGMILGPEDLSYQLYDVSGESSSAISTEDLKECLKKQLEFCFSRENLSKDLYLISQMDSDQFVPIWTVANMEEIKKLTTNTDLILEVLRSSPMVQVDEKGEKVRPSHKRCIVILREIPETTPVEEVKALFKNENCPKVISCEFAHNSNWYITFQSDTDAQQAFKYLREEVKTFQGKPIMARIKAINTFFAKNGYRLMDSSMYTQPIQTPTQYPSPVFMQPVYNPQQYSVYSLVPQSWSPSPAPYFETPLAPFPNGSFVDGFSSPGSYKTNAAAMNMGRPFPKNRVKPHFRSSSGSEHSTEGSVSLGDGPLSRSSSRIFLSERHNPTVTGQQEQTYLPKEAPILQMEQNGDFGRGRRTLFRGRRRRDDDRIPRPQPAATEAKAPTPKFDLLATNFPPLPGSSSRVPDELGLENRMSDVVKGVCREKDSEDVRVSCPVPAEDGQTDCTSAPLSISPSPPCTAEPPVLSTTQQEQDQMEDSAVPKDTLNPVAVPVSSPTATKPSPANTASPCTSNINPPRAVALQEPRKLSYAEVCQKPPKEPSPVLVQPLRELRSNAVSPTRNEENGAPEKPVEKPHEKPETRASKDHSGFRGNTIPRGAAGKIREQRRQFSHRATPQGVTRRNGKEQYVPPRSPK
GST-Larp4 110-277aa: residues 110-277 of Q8BWW4
GST-Larp4 110-269aa: residues 110-269 of Q8BWW4
endogenous mouse Larp4 (La-related protein 4) of MEF cells (Q8BWW4, form named): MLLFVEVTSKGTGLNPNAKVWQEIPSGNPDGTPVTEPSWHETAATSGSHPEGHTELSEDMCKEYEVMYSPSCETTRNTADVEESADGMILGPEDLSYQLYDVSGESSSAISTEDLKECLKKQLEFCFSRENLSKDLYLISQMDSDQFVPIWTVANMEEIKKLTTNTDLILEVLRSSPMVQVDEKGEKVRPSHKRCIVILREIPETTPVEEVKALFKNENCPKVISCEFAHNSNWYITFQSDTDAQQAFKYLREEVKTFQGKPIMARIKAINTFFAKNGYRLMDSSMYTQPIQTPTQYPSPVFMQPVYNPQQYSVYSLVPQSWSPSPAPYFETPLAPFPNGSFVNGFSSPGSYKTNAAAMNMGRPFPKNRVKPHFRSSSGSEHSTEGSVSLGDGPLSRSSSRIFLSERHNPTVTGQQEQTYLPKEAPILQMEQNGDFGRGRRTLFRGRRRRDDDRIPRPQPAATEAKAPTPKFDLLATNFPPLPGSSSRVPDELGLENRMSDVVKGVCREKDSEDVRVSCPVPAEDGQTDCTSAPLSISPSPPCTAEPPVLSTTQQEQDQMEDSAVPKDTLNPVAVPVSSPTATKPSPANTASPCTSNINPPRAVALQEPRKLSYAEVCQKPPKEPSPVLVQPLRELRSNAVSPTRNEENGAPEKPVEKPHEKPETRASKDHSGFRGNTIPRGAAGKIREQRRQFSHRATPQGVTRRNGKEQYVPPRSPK
UniProt P21333: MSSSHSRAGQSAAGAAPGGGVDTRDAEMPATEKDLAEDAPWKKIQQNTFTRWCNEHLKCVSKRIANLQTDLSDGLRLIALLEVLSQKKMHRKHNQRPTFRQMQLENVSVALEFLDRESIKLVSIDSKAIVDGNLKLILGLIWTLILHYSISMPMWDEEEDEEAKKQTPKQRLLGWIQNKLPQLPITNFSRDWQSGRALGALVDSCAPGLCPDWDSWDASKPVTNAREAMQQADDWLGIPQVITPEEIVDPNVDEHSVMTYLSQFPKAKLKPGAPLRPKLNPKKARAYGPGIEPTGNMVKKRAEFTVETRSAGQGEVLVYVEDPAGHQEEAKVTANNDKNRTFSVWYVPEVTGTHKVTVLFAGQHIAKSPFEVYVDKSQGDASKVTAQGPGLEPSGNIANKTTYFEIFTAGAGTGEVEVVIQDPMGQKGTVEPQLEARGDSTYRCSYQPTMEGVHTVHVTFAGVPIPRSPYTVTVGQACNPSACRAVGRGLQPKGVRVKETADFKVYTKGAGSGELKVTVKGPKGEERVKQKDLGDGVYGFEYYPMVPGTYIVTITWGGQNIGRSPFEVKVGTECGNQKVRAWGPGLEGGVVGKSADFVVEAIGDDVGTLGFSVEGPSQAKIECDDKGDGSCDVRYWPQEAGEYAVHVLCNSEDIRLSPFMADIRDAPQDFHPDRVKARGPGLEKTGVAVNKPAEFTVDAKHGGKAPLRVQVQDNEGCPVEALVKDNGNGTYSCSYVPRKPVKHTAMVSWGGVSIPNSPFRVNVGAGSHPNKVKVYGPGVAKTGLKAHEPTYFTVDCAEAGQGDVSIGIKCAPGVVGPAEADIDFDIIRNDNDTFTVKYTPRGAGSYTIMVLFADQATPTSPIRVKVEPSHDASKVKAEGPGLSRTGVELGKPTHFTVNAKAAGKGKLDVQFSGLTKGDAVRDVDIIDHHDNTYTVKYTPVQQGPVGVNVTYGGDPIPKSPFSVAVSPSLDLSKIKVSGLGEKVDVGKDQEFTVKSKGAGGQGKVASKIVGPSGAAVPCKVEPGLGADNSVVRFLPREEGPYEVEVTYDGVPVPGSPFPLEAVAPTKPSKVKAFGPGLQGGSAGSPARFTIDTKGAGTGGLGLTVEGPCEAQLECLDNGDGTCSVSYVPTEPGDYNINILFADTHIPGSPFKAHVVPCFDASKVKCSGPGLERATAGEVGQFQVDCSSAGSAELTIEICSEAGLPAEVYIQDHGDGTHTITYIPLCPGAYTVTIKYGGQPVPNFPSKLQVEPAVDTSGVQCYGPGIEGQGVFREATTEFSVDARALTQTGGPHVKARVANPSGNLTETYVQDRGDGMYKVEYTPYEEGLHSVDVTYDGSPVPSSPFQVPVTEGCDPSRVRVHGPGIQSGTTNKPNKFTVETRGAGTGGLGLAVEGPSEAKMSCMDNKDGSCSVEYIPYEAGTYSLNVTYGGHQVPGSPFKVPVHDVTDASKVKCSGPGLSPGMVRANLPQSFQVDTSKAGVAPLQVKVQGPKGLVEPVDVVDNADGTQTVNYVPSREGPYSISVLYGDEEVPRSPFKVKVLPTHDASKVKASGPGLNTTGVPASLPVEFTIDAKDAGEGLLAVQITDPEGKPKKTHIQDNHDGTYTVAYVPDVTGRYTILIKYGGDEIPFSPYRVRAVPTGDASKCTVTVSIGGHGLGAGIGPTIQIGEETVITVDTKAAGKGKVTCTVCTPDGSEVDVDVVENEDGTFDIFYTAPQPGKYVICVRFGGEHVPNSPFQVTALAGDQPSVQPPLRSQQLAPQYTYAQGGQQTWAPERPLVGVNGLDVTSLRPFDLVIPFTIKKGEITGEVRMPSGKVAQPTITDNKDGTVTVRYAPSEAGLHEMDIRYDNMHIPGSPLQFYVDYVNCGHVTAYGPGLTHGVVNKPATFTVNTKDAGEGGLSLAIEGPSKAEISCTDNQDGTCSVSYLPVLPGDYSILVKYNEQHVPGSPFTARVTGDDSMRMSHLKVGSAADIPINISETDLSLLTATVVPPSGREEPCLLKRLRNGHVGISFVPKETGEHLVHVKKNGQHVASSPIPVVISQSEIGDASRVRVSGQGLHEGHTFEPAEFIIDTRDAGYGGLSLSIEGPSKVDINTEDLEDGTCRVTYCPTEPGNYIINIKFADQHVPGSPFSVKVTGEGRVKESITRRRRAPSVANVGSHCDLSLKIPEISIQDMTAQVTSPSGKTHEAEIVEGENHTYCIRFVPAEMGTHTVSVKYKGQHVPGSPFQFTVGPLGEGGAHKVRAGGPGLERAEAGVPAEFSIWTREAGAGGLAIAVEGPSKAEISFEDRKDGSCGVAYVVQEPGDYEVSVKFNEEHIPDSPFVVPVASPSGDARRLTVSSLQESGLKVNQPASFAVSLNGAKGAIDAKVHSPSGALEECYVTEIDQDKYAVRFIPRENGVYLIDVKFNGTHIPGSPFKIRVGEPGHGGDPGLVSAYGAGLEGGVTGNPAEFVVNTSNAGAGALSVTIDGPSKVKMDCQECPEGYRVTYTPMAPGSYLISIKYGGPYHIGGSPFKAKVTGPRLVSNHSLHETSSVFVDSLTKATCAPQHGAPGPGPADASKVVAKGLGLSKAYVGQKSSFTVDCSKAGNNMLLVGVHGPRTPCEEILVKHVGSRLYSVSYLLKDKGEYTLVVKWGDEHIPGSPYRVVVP
UniProt Q71RC2: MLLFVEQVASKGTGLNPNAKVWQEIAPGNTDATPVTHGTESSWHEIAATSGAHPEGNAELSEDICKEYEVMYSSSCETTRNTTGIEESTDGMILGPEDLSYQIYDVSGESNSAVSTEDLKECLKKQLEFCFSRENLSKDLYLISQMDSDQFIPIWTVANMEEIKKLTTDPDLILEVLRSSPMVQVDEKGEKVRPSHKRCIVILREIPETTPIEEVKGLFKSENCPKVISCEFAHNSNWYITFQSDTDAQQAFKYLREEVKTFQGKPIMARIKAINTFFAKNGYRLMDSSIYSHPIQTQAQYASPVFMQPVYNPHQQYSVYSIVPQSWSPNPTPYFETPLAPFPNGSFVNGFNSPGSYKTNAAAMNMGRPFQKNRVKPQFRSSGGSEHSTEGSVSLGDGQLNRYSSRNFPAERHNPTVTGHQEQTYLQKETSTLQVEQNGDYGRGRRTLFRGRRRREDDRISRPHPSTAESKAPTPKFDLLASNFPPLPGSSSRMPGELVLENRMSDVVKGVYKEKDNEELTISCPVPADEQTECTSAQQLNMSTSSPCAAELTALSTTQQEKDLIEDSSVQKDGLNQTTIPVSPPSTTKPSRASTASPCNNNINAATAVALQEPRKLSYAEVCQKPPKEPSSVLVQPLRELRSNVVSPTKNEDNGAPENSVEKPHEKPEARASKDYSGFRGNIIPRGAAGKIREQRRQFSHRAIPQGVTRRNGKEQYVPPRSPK

For experiment [1], the target named is GST-Larp4 110-277aa (mouse) (UniProt Q8BWW4). The experiment is described as follows: pull-down; GST-Larp4 (full length, fragments or La modules) on glutathione beads, purified His-eGFP-FLNA R21-22 (2 μM in Figures 3C and 5C), TBS-0.1% Tx, 1 h, room temperature; blot anti-GFP; both purified.
In experiment [2] the target is GST-Larp4 110-269aa (mouse) (UniProt Q8BWW4). The experiment is described as above.
Experiment [3] has as its target GST-Larp4 (mouse, full length) (mouse) (UniProt Q8BWW4). The description is as above.
The target of experiment [4] is SBP-FLNA del41 (full length) (human) (UniProt P21333). The experiment is described as follows: pull-down; SBP-FLNA (WT or del41) from transfected HEK293A lysate held on streptavidin beads, then hsSKM or MEF cell lysate, 1 h, 4°C, washed with TBS-0.1% Tx; blot anti-LARP4.

These are yes or no findings as the source states them, for the method shown. For some assays here: Binding can be weak; no strength is given. For some assays here: In cells and extracts the contact can be indirect.

For the substance “His-eGFP-FLNA R21-22 (from UniProt P21333) (domain or fragment)”, the figures for the binding entry in experiment [1], in experiment [2] and in experiment [3] were “binds”, “no binding (tested: 2 μM)” and “binds”, respectively. Consider “endogenous human LARP4 of hsSKM cells (from UniProt Q71RC2 1-724)”, for which the binding entry in experiment [4] is “binds”. Same read-out and setting: for “endogenous mouse Larp4 (La-related protein 4) of MEF cells (from UniProt Q8BWW4 1-719)” the value was “binds”.
